Source: PMC10158545
Results are given in words; binding and its absence hold for the method and conditions named. Binding seen in cells or lysates may run through a third protein. These calls come from enrichment with a bait or labelling near it, and not all partners need be listed.

By UniProt entry, the sequences of proteins in these tests, tags left out. Residues count along the entry.
UniProt Q9NZQ7, residues 19-290: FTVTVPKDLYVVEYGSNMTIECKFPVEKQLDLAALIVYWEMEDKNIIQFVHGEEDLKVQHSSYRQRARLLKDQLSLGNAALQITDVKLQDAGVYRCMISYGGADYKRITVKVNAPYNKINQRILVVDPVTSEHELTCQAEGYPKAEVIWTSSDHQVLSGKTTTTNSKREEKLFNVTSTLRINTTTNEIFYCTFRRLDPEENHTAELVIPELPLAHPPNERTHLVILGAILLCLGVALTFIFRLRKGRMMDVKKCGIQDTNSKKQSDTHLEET

Target: PD-L1 (bait of the IP-MS) (UniProt Q9NZQ7)
Assay: affinity purification with mass spectrometry; immunoprecipitation of PD-L1 followed by mass spectrometry (IP-MS); cells, antibody and conditions not told

binding: binds
B1: flotillin-1 (FLOT1) (hit of the IP-MS) (protein, UniProt O75955 1-427)
chain: MFFTCGPNEAMVVSGFCRSPPVMVAGGRVFVLPCIQQIQRISLNTLTLNVKSEKVYTRHGVPISVTGIAQVKIQGQNKEMLAAACQMFLGKTEAEIAHIALETLEGHQRAIMAHMTVEEIYKDRQKFSEQVFKVASSDLVNMGISVVSYTLKDIHDDQDYLHSLGKARTAQVQKDARIGEAEAKRDAGIREAKAKQEKVSAQYLSEIEMAKAQRDYELKKAAYDIEVNTRRAQADLAYQLQVAKTKQQIEEQRVQVQVVERAQQVAVQEQEIARREKELEARVRKPAEAERYKLERLAEAEKSQLIMQAEAEAASVRMRGEAEAFAIGARARAEAEQMAKKAEAFQLYQEAAQLDMLLEKLPQVAEEISGPLTSANKITLVSSGSGTMGAAKVTGEVLDILTRLPESVERLTGVSISQVNHKPLRTA
